# Measured values taken from patent publication USRE48558.
# The chains behind the UniProt entries cited, without tags or fusion partners. Where a name states a change or a piece, a line headed by the entry shows the natural chain unless it says otherwise.
# UniProt P40259: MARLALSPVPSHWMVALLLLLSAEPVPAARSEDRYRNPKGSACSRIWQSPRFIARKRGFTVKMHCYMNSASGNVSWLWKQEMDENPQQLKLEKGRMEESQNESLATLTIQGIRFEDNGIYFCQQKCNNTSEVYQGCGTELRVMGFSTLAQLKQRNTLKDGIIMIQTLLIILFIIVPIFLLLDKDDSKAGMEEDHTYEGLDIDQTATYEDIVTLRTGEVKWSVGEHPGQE
# Numbering of substitutions follows the chain as printed. Results are given in words; binding and its absence hold for the method and conditions named. Some results given as binding are weak or reduced against the parent protein; the word gives no strength.
# B1: huMA79b graft variant SEQ ID NO: 37 (Fab, name in Kabat numbering, V domains shown)
# VH: EVQLVESGGGLVQPGGSLRLSCAASGYTFSSYWIEWVRQAPGKGLEWVGEILPGGGDTNYNEIFKGRFTISADTSKNTAYLQMNSLRAEDTAVYYCTRRVPVYFDYWGQGTLVTVSS
# VL: DIQMTQSPSSLSASVGDRVTITCKASQSVDYDGDSFLNWYQQKPGKAPKLLIYAARYLRRGVPSRFSGSGSGTDFTLTISSLQPEDFATYYCQQSNEDPLTFGQGTKVEIKR
# B2: huMA79b graft variant SEQ ID NO: 90 (Fab, name in Kabat numbering, V domains shown)
# VH: B1 VH with F104L
# VL: B1 VL with R56S, Y57N, R59E, R60S
# B3: huMA79b graft variant SEQ ID NO: 42 (Fab, name in Kabat numbering, V domains shown)
# VH: B1 VH
# VL: B1 VL with Y57K, R59K, R60N
# B4: huMA79b graft variant SEQ ID NO: 46 (Fab, name in Kabat numbering, V domains shown)
# VH: B1 VH
# VL: B1 VL with R56S, Y57N, R59E, R60S, E97A
# B5: huMA79b graft variant SEQ ID NO: 45 (Fab, name in Kabat numbering, V domains shown)
# VH: B1 VH
# VL: B1 VL with Y57K, R59A
# B6: huMA79b graft variant SEQ ID NO: 47 (Fab, name in Kabat numbering, V domains shown)
# VH: B1 VH
# VL: B1 VL with R56S, Y57N, R59E, R60S, E97Q
# B7: huMA79b graft variant SEQ ID NO: 38 (Fab, name in Kabat numbering, V domains shown)
# VH: B1 VH
# VL: B1 VL with Y57R, R60T
# B8: huMA79b graft variant SEQ ID NO: 87 (Fab, name in Kabat numbering, V domains shown)
# VH: B1 VH with V102I, F104L
# VL: B1 VL with R56S, Y57N, R59E, R60S
# B9: huMA79b graft variant SEQ ID NO: 41 (Fab, name in Kabat numbering, V domains shown)
# VH: B1 VH
# VL: B1 VL with Y57K, R59L
# B10: huMA79b graft variant SEQ ID NO: 39 (Fab, name in Kabat numbering, V domains shown)
# VH: B1 VH
# VL: B1 VL with Y57R, R59G
# B11: huMA79b graft variant SEQ ID NO: 44 (Fab, name in Kabat numbering, V domains shown)
# VH: B1 VH
# VL: B1 VL with Y57K, R59G, R60G
# B12: huMA79b graft variant SEQ ID NO: 91 (Fab, name in Kabat numbering, V domains shown)
# VH: B1 VH with V102I
# VL: B1 VL with R56S, Y57N, R59E, R60S
# B13: huMA79b graft variant SEQ ID NO: 40 (Fab, name in Kabat numbering, V domains shown)
# VH: B1 VH
# VL: B1 VL with Y57Q, L58R, R59K
# B14: huMA79b graft variant SEQ ID NO: 43 (Fab, name in Kabat numbering, V domains shown)
# VH: B1 VH
# VL: B1 VL with Y57K, R59G, R60T
# Biological target: extracellular domain of human CD79b (human) (UniProt P40259)
# Assay: phage selection, Fab on phage, plate-bound huCD79becd
row,binding,Binder
1,binds,B1
2,binds,B2
3,binds,B3
4,binds,B4
5,binds,B5
6,binds,B6
7,binds,B7
8,binds,B8
9,binds,B9
10,binds,B10
11,binds,B11
12,binds,B12
13,binds,B13
14,binds,B14
